# Experimental data: PubChem BioAssay AID1259274 (Sanger Institute, 2017)
# Aim: 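Kinase knock-downs that cut colorectal cancer cell viability or boost drug killing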 (primary screen)
# System: human RKO colorectal cancer cells
# Knock-down reagent: siRNA pool against human genes
# Conditions: anchor drugs BYL719 at 1 µM, cetuximab at 5 µg/ml or trametinib at 10 nM; DMSO vehicle as the no-drug arm
# Read-out: 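Viability of cells versus control pool 2 (non-targeting) averaged across replicates; knock-down-only robust z-score; for every anchor drug (BYL719, cetuximab, trametinib) a synergy score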
# Direction: viability z-score, siRNA alone: higher = more viable cells; low values mean essential gene; viability, siRNA alone, vehicle: higher = more viable cells; synergy score with BYL719 and synergy score with Trametinib and synergy score with Cetuximab: higher = stronger combined killing with the drug
# Active means: 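Essential when the robust viability z-score with siRNA only falls below -3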
# Calls: active = essential when knocked down alone; inactive = no change alone
# Shown is a random part of 794 deposited reagents. Of all reagents, 11 (1.4%) got an active call. 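Calls rest on knock-down without drug only; synergy scores with anchor drugs were not used for the essential call.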 Viability is capped at 1. Not stated in the record: the amount of reagent, the time to read-out.
gene symbol,"viability z-score, siRNA alone","viability, siRNA alone, vehicle (fraction of control)",synergy score with BYL719,synergy score with Trametinib,synergy score with Cetuximab,activity call
EPHB6 (GeneID 2051),-0.132,0.887,-0.0574,-0.0749,0.0111,inactive
GRK7 (GeneID 131890),-0.664,0.841,0.0237,-0.0877,-0.139,inactive
IKBKB (GeneID 3551),-0.393,0.864,0.00385,-0.149,-0.0602,inactive
CSNK1A1 (GeneID 1452),-0.284,0.874,0.0556,0.00863,0.0399,inactive
NUAK1 (GeneID 9891),-0.902,0.821,-0.0472,-0.177,-0.0152,inactive
ROS1 (GeneID 6098),1.19,1,-0.054,-0.0417,0.0239,inactive
PIK3R5 (GeneID 23533),-1.26,0.79,0.0316,-0.341,-0.094,inactive
STK24 (GeneID 8428),-0.816,0.828,-0.0493,-0.0767,-0.106,inactive
CKMT2 (GeneID 1160),-0.522,0.853,0.00754,-0.0998,-0.0794,inactive
CAMK2G (GeneID 818),0.34,0.927,-0.0308,-0.0739,0.0085,inactive
CHKA (GeneID 1119),-0.847,0.825,-0.125,-0.183,-0.0596,inactive
ERBB3 (GeneID 2065),0.274,0.921,-0.136,-0.166,-0.0785,inactive
PTEN (GeneID 5728),1.19,1,-0.0607,-0.239,0,inactive
AURKB (GeneID 9212),0.331,0.926,0.0368,0.0949,0.0867,inactive
TRPM6 (GeneID 140803),0.402,0.932,0.00944,-0.176,-0.0379,inactive
BRWD1 (GeneID 54014),0.414,0.933,0.0278,-0.109,0.00751,inactive
STRADB (GeneID 55437),1.04,0.987,0.0635,-0.186,-0.0128,inactive
SMAD4 (GeneID 4089),0.825,0.969,0.0589,-0.107,-0.0039,inactive
CNOT1 (GeneID 23019),-0.901,0.821,-0.00966,-0.108,0.0285,inactive
RUNX1 (GeneID 861),-0.564,0.85,0.0273,-0.0541,-0.118,inactive
PI4K2A (GeneID 55361),0.701,0.958,-0.116,-0.202,-0.0419,inactive
PIK3R3 (GeneID 8503),0.443,0.936,-0.0754,-0.212,0.0628,inactive
TBX3 (GeneID 6926),-1.06,0.807,-0.2,-0.256,-0.0764,inactive
TSSK4 (GeneID 283629),0.673,0.956,0.0705,-0.032,-0.017,inactive
MAP4K5 (GeneID 11183),0.376,0.93,0.0431,-0.186,0.0939,inactive
MAPK4 (GeneID 5596),-0.578,0.849,-0.06,-0.178,-0.151,inactive
CDKN2D (GeneID 1032),-0.0249,0.896,-0.0542,0.0316,0.0143,inactive
CDKN2C (GeneID 1031),0.88,0.973,-0.0771,-0.208,0.0797,inactive
PTK7 (GeneID 5754),-0.555,0.85,-0.00154,-0.0593,0.0389,inactive
IRAK3 (GeneID 11213),-1.4,0.778,-0.0246,-0.0314,-0.0815,inactive
DBF4 (GeneID 10926),1.19,1,-0.154,-0.262,0,inactive
RPS6KA1 (GeneID 6195),-0.0276,0.896,-0.0331,-0.131,0.000929,inactive
MAST3 (GeneID 23031),0.508,0.942,-0.114,-0.134,0.0126,inactive
PIP5K1A (GeneID 8394),-0.641,0.843,-0.0526,-0.107,-0.0317,inactive

3 of these entries, reformatted.
gene symbol	viability z-score, siRNA alone	viability, siRNA alone, vehicle (fraction of control)	synergy score with BYL719	synergy score with Trametinib	synergy score with Cetuximab	activity call
NUAK1 (GeneID 9891)	-0.902	0.821	-0.0472	-0.177	-0.0152	inactive
ROS1 (GeneID 6098)	1.19	1	-0.054	-0.0417	0.0239	inactive
PIK3R5 (GeneID 23533)	-1.26	0.79	0.0316	-0.341	-0.094	inactive
